The structures appear in SMILES notation. This is one part of the list. Hit calls seldom repeat between salt and free forms of one compound.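 Kinases were expressed as nanoluciferase fusions in K562 cells and luminescence was read every 4 h between 2 and 18 h as percent of control, DMSO set to 100% and a positive control to 0%. A time point counts as decreased when the signal drops significantly (2 sigma). The hit call is the authors' own, does not follow from the count of time points alone, and its rule is not shown.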

Amino acid sequences for entries named in this document (tags omitted). A change or cut given only in a name is not applied to a line headed by its entry.
UniProt P50613: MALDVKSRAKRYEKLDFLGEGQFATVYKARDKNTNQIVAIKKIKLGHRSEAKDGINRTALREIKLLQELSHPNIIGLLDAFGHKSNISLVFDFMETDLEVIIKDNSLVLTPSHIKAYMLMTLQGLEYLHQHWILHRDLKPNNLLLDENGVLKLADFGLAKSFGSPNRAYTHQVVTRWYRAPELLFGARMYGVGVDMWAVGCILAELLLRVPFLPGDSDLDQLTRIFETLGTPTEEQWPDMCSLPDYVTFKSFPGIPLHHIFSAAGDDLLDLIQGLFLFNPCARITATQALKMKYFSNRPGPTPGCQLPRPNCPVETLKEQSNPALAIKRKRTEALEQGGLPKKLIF

This experiment has as its target CDK7 (UniProt P50613). Briefly: kinase-Nluc reporter destabilization hit call (1 = scored as downregulated) (binary); higher = compound decreases kinase abundance. The settings on record: K562; 2-18 h.
Consider `CNC(=O)c1cc(Oc2ccc(NC(=O)Nc3cc(C(C)(C)C)nn3-c3ccc4ncccc4c3)c(F)c2)ccn1` [Rebastinib] (2.5 µM), for which the “kinase-Nluc reporter destabilization hit call” value was active: 1.

With `CCCn1cnc2c(NCc3ccccc3)nc(NC(CC)CO)nc21` (centres undefined) [Ca2+ channel agonist 1] (2.5 µM), the “kinase-Nluc reporter destabilization hit call” value was inactive: 0.

As for `Brc1c(Br)c(Br)c2n[nH]nc2c1Br` (10 µM), the “kinase-Nluc reporter destabilization hit call” value is inactive: 0.

Regarding `C=CC(=O)Nc1cccc(Nc2nc(Nc3ccc(OCCOC)cc3)ncc2F)c1` [Spebrutinib] (10 µM), the “kinase-Nluc reporter destabilization hit call” value is inactive: 0.

`CC(C)=CC/C=C(\C)[C@H]1CC[C@]2(C)[C@@H]1[C@H](O)C[C@@H]1[C@@]3(C)CC[C@H](O[C@@H]4O[C@H](CO)[C@@H](O)[C@H](O)[C@H]4O[C@@H]4O[C@H](CO)[C@@H](O)[C@H](O)[C@H]4O)C(C)(C)[C@@H]3CC[C@]12C` [Ginsenoside Rg5] (10 µM): the “kinase-Nluc reporter destabilization hit call” value is inactive: 0.

Consider `Cc1ncc(-c2ccnc(Nc3ccc(S(C)(=O)=O)cc3)n2)n1C(C)C` (2.5 µM), for which the “kinase-Nluc reporter destabilization hit call” value was inactive: 0.

For `CN(C)CCOc1ccc(-c2nc(-c3ccncc3)c(-c3ccc4c(c3)CC/C4=N\O)[nH]2)cc1` (10 µM), the “kinase-Nluc reporter destabilization hit call” value is inactive: 0.

With `CCN(CCCOc1ccc2c(Nc3cc(CC(=O)Nc4cccc(F)c4)[nH]n3)ncnc2c1)CCOP(=O)(O)O` [Barasertib] (10 µM), the “kinase-Nluc reporter destabilization hit call” value is inactive: 0.

Regarding `C=CC(=O)N[C@H]1COC[C@H]1Nc1ncc2cc(-c3c(Cl)c(OC)cc(OC)c3Cl)c(=O)n(C)c2n1` (10 µM), the “kinase-Nluc reporter destabilization hit call” value was inactive: 0.

Source of the values: the supplement of paper PMC12823440, “Inhibitors supercharge kinase turnover through native proteolytic circuits” (Nature, 2025).
